Data as given in PubChem BioAssay AID504764 (Drosophila RNAi Screening Center, 2011).
The screen tested about 22,000 reagents; shown is an unselected part of those with a known target gene and a result. Of all reagents, 403 (1.9%) are marked active. 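Unnormalised raw counts per well; ratio z-scores behind the hit calls and whether each hit raises or lowers signal are not deposited.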 Unmarked entries are inactive. Reagent sequences are not shown. Not stated in the record: the amount of reagent.

- Assay: 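Knock-downs that raise or lower a Notch target reporter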 (primary screen)
- System: Drosophila Kc167 cells
- Reagents: long dsRNA against Drosophila genes
- Timing: about 5 days (4 days dsRNA, then 24 h after transfection)
- Challenge: transfection of constitutively active membrane-tethered Notch lacking the extracellular domain, read 24 h later
- Measured: 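Light from a Notch-responsive E(spl)m3 luciferase reporter under active Notch, with control-promoter and no-Notch reporter wells to normalise; raw counts from paired wells a and b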
- Scale: induced reporter light, run 1, well a and induced reporter light, run 1, well b: higher = more light from the Notch target reporter with active Notch; control promoter light, run 1, well a and control promoter light, run 1, well b: higher = more light from the viral control promoter (cell number, transfection, viability); uninduced reporter light, run 1, well a: higher = more light from the Notch target reporter without active Notch
- Call rule: 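Wells with low control signal or poorly matching duplicates excluded; duplicates averaged; per source plate, z beyond ±2 for induced/control log2 ratio or beyond ±1.8 for induced/uninduced marks a hit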
- Calls: active = modifier hit (raised or lowered Notch signal); inactive = not a hit

{"target gene": "CG13054", "DRSC id": "DRSC09935", "induced reporter light, run 1, well a": "1.96e5 (active)", "induced reporter light, run 1, well b": 1.56e5, "control promoter light, run 1, well a": 3.25e5, "control promoter light, run 1, well b": 2.58e5, "uninduced reporter light, run 1, well a": 8550}
{"target gene": "CG12898", "DRSC id": "DRSC06213", "induced reporter light, run 1, well a": 1.84e5, "induced reporter light, run 1, well b": 2.23e5, "control promoter light, run 1, well a": 2.55e5, "control promoter light, run 1, well b": 2.43e5, "uninduced reporter light, run 1, well a": 17800}
{"target gene": "PH4alphaNE3 (prolyl-4-hydroxylase-alpha NE3)", "DRSC id": "DRSC16541", "induced reporter light, run 1, well a": 1.52e5, "induced reporter light, run 1, well b": 1.95e5, "control promoter light, run 1, well a": 2.05e5, "control promoter light, run 1, well b": 2.00e5, "uninduced reporter light, run 1, well a": 10730}
{"target gene": "dan (distal antenna)", "DRSC id": "DRSC14406", "induced reporter light, run 1, well a": 17470, "induced reporter light, run 1, well b": 12700, "control promoter light, run 1, well a": 15985, "control promoter light, run 1, well b": 22642, "uninduced reporter light, run 1, well a": 1530}
{"target gene": "CG4586", "DRSC id": "DRSC18373", "induced reporter light, run 1, well a": 2.64e5, "induced reporter light, run 1, well b": 2.13e5, "control promoter light, run 1, well a": 2.58e5, "control promoter light, run 1, well b": 2.11e5, "uninduced reporter light, run 1, well a": 17315}
{"target gene": "CG34393", "DRSC id": "DRSC00419", "induced reporter light, run 1, well a": 1.47e5, "induced reporter light, run 1, well b": 1.60e5, "control promoter light, run 1, well a": 1.38e5, "control promoter light, run 1, well b": 1.36e5, "uninduced reporter light, run 1, well a": 10695}
{"target gene": "CG34393", "DRSC id": "DRSC00710", "induced reporter light, run 1, well a": 1.75e5, "induced reporter light, run 1, well b": 1.52e5, "control promoter light, run 1, well a": 1.78e5, "control promoter light, run 1, well b": 1.67e5, "uninduced reporter light, run 1, well a": 9500}
{"target gene": "MED8 (Mediator complex subunit 8)", "DRSC id": "DRSC06426", "induced reporter light, run 1, well a": 84050, "induced reporter light, run 1, well b": 99650, "control promoter light, run 1, well a": 1.26e5, "control promoter light, run 1, well b": 1.11e5, "uninduced reporter light, run 1, well a": 8355}
{"target gene": "east (enhanced adult sensory threshold)", "DRSC id": "DRSC18770", "induced reporter light, run 1, well a": 58000, "induced reporter light, run 1, well b": 72320, "control promoter light, run 1, well a": 1.17e5, "control promoter light, run 1, well b": 1.01e5, "uninduced reporter light, run 1, well a": 5100}
{"target gene": "CG31778", "DRSC id": "DRSC00283", "induced reporter light, run 1, well a": 87590, "induced reporter light, run 1, well b": 71565, "control promoter light, run 1, well a": 68685, "control promoter light, run 1, well b": 65430, "uninduced reporter light, run 1, well a": 5620}
{"target gene": "CG30398", "DRSC id": "DRSC03891", "induced reporter light, run 1, well a": 87070, "induced reporter light, run 1, well b": 82255, "control promoter light, run 1, well a": 89615, "control promoter light, run 1, well b": 76210, "uninduced reporter light, run 1, well a": 8775}
{"target gene": "Mco3 (Multicopper oxidase 3)", "DRSC id": "DRSC15926", "induced reporter light, run 1, well a": 1.49e5, "induced reporter light, run 1, well b": 1.87e5, "control promoter light, run 1, well a": 2.07e5, "control promoter light, run 1, well b": 2.40e5, "uninduced reporter light, run 1, well a": 13470}
{"target gene": "CG6511", "DRSC id": "DRSC10656", "induced reporter light, run 1, well a": 3.38e5, "induced reporter light, run 1, well b": 2.41e5, "control promoter light, run 1, well a": 2.07e5, "control promoter light, run 1, well b": 3.63e5, "uninduced reporter light, run 1, well a": 11465}
{"target gene": "rho-5 (rhomboid-5)", "DRSC id": "DRSC02847", "induced reporter light, run 1, well a": 1.26e5, "induced reporter light, run 1, well b": 1.54e5, "control promoter light, run 1, well a": 70450, "control promoter light, run 1, well b": 93825, "uninduced reporter light, run 1, well a": 17490}
{"target gene": "CG2906", "DRSC id": "DRSC06841", "induced reporter light, run 1, well a": 2.42e5, "induced reporter light, run 1, well b": 2.31e5, "control promoter light, run 1, well a": 2.76e5, "control promoter light, run 1, well b": 2.96e5, "uninduced reporter light, run 1, well a": 20110}
{"target gene": "CG10405", "DRSC id": "DRSC14238", "induced reporter light, run 1, well a": 2.13e5, "induced reporter light, run 1, well b": 2.13e5, "control promoter light, run 1, well a": 2.25e5, "control promoter light, run 1, well b": 2.16e5, "uninduced reporter light, run 1, well a": 19520}
{"target gene": "Grl43a (Gustatory receptor-like 43a)", "DRSC id": "DRSC06383", "induced reporter light, run 1, well a": 1.92e5, "induced reporter light, run 1, well b": 2.14e5, "control promoter light, run 1, well a": 3.03e5, "control promoter light, run 1, well b": 2.64e5, "uninduced reporter light, run 1, well a": 19170}
{"target gene": "Lcp65APsi (pseudo)", "DRSC id": "DRSC08795", "induced reporter light, run 1, well a": 2.38e5, "induced reporter light, run 1, well b": 1.81e5, "control promoter light, run 1, well a": 2.00e5, "control promoter light, run 1, well b": 2.06e5, "uninduced reporter light, run 1, well a": 14730}
{"target gene": "Lcp65APsi (pseudo)", "DRSC id": "DRSC10342", "induced reporter light, run 1, well a": 1.93e5, "induced reporter light, run 1, well b": 1.54e5, "control promoter light, run 1, well a": 2.22e5, "control promoter light, run 1, well b": 2.14e5, "uninduced reporter light, run 1, well a": 9485}

2 entries from above, arranged by “control promoter light, run 1, well a”, highest first.
{"target gene": "Grl43a (Gustatory receptor-like 43a)", "DRSC id": "DRSC06383", "induced reporter light, run 1, well a": 1.92e5, "induced reporter light, run 1, well b": 2.14e5, "control promoter light, run 1, well a": 3.03e5, "control promoter light, run 1, well b": 2.64e5, "uninduced reporter light, run 1, well a": 19170}
{"target gene": "Lcp65APsi (pseudo)", "DRSC id": "DRSC08795", "induced reporter light, run 1, well a": 2.38e5, "induced reporter light, run 1, well b": 1.81e5, "control promoter light, run 1, well a": 2.00e5, "control promoter light, run 1, well b": 2.06e5, "uninduced reporter light, run 1, well a": 14730}
